Source: PMC6212790, “How bacterial xenogeneic silencer rok distinguishes foreign from self DNA in its resident genome” (Nucleic Acids Research, 2018)
Changes are numbered by the printed parent chain. The comparison behind a weaker result is the experiment's own reference, which may not be listed here. Protein sequences can lack the tags named with them.

Experiments:
[1] = target: T1, Rok-C114-185 N154D (Bacillus subtilis subsp. subtilis str. 168) (UniProt O34857); test: ITC; conditions: ITC: sodium phosphate buffer, 200 mM NaCl, pH 6, 277 K, 50 uM protein in cell titrated with 750 uM Seq1 DNA; recombinant protein; residues 114-185; protein details: C-terminal His6
T1 sequence (looked up): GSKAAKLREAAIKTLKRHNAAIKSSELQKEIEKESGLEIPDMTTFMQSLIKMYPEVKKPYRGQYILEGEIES

[2] = target: T2, Rok-C114-185 K171A (Bacillus subtilis subsp. subtilis str. 168) (UniProt O34857); test: NMR HSQC; conditions: NMR samples: 50 mM sodium phosphate, 50 mM NaCl, pH 6.0; recombinant protein; residues 114-185; protein details: C-terminal His6
T2 sequence (looked up): T1 sequence (looked up) with D41N, K58A

[3] = target: T3, Rok-C114-185 R174A (Bacillus subtilis subsp. subtilis str. 168) (UniProt O34857); test: NMR HSQC; conditions: NMR samples: 50 mM sodium phosphate, 50 mM NaCl, pH 6.0; recombinant protein; residues 114-185; protein details: C-terminal His6
T3 sequence (looked up): T1 sequence (looked up) with D41N, R61A

[4] = target: T4, Rok-C114-185 T156A (Bacillus subtilis subsp. subtilis str. 168) (UniProt O34857); test: NMR HSQC; conditions: NMR samples: 50 mM sodium phosphate, 50 mM NaCl, pH 6.0; recombinant protein; residues 114-185; protein details: C-terminal His6
T4 sequence (looked up): T1 sequence (looked up) with D41N, T43A

Measured: binding result

CTAATAACTAGTTATTAG (double strand) [Seq1]
binds more weakly: all assays above
